These are yes or no findings as the source states them, for the method shown. In cells and extracts the contact can be indirect. Some binding calls cover weakened binding; strength is not graded here.
Experiments:
[1] = target: T1, alpha-dystroglycan (rabbit skeletal muscle) (rabbit (endogenous in skeletal muscle)) (UniProt Q28685); test: co-IP; anti-α-DG antibody IIH6 coupled to CNBr-activated Sepharose; WGA-enriched, digitonin-solubilised rabbit skeletal muscle microsomes; 0.1% digitonin, 50 mM Tris-HCl pH 7.4, 150 mM NaCl; eluted in 0.1 M triethylamine pH 11.5; Western blot
T1 sequence: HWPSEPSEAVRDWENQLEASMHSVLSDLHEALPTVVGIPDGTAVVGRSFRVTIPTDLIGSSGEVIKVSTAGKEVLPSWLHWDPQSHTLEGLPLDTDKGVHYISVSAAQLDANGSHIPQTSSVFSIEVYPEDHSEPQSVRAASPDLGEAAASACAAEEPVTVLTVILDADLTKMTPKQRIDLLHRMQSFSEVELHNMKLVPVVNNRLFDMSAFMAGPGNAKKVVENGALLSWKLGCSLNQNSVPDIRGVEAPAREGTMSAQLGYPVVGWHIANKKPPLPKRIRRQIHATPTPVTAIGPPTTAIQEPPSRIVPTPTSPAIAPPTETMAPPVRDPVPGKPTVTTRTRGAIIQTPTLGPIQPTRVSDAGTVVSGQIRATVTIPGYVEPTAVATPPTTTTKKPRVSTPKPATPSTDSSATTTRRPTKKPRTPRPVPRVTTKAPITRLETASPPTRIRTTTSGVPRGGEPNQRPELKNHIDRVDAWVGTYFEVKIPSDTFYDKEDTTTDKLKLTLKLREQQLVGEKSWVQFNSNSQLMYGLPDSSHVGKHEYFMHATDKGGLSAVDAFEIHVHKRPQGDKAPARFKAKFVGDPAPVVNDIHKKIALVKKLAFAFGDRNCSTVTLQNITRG

The chains behind the UniProt entries cited, without tags or fusion partners. Residues count along the entry.
UniProt P02769, residues 25-607: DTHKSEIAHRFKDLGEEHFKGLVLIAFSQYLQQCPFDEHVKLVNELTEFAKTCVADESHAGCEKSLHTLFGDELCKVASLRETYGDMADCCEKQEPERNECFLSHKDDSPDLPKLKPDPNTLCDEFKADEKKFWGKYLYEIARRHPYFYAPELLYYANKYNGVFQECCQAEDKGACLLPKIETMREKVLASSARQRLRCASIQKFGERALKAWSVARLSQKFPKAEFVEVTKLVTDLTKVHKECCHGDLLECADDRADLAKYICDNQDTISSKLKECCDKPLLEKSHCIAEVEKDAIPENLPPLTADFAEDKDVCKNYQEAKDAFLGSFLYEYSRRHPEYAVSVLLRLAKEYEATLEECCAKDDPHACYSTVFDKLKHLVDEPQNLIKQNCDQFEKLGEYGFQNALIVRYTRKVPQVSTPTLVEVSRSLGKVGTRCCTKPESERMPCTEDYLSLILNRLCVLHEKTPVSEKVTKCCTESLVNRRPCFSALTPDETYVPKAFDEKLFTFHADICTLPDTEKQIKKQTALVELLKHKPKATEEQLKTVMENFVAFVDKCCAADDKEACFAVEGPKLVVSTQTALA
UniProt O19132: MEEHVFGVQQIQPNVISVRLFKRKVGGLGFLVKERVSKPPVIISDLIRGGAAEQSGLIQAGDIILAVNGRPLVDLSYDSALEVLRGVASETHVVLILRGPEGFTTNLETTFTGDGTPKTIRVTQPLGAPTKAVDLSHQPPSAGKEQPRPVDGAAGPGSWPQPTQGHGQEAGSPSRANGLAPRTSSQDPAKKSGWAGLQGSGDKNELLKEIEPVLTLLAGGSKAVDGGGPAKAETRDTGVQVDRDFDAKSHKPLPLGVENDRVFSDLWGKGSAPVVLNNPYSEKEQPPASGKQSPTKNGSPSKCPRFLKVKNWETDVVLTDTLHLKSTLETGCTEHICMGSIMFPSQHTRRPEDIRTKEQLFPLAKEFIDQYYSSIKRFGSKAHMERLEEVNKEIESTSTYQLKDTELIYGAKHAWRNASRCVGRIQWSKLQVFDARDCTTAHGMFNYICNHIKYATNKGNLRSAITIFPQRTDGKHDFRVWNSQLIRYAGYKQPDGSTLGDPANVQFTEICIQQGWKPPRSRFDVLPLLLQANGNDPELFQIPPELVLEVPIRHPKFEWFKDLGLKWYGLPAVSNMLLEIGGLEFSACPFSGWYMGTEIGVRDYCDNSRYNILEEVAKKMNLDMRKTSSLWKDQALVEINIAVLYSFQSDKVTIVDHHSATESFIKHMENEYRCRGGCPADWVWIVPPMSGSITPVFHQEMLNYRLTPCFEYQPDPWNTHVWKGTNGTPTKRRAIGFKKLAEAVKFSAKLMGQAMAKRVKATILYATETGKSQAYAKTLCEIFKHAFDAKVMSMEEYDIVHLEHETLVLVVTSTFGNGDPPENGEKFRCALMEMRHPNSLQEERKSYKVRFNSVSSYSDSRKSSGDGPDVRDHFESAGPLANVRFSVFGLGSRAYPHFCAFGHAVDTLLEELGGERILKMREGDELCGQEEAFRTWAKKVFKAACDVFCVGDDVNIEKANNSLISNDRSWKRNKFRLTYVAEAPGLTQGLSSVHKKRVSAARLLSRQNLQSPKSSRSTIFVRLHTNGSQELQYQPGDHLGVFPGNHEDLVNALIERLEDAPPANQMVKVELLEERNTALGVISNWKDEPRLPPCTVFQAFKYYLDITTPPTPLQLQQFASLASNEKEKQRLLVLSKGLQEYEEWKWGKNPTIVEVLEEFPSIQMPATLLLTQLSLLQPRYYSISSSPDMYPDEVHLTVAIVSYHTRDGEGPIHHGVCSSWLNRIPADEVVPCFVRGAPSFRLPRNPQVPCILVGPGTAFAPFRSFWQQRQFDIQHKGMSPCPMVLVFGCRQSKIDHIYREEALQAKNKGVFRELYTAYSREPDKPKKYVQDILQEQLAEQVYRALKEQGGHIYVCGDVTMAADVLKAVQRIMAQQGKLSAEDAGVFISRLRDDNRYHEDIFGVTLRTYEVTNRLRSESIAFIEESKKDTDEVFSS

[2] = target: bovine serum albumin (bovine) (UniProt P02769); test: pull-down; negative control of the immunoprecipitation: BSA coupled to CNBr-activated Sepharose; WGA-enriched, digitonin-solubilised rabbit skeletal muscle microsomes; 0.1% digitonin, 50 mM Tris-HCl pH 7.4, 150 mM NaCl; Western blot; only the target purified

- binding [1]: binds
- binding [2]: no binding
Substance: neuronal nitric oxide synthase (rabbit skeletal muscle) (from UniProt O19132 1-1435) (enzyme)
